PubChem BioAssay AID504764 | Drosophila RNAi Screening Center – 2011

- Assay: 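Knock-downs that raise or lower a Notch target reporter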 (primary screen)
- Cells: Drosophila Kc167 cells
- Reagents: long dsRNA against Drosophila genes
- Timing: about 5 days (4 days dsRNA, then 24 h after transfection)
- Treatment: transfection of constitutively active membrane-tethered Notch lacking the extracellular domain, read 24 h later
- Measured: 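Firefly luciferase from an E(spl)m3 reporter with active Notch, plus control-promoter and uninduced reporter wells for normalisation; unnormalised counts, duplicate wells a and b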
- Reading the numbers: induced reporter light, run 1, well a and induced reporter light, run 1, well b: higher = more light from the Notch target reporter with active Notch; control promoter light, run 1, well a and control promoter light, run 1, well b: higher = more light from the viral control promoter (cell number, transfection, viability); uninduced reporter light, run 1, well a: higher = more light from the Notch target reporter without active Notch
- Call rule: 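Wells with low control signal or poorly matching duplicates excluded; duplicates averaged; per source plate, z beyond ±2 for induced/control log2 ratio or beyond ±1.8 for induced/uninduced marks a hit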
- Meaning of the calls: active = modifier hit (raised or lowered Notch signal); inactive = not a hit
The deposit covers about 22,000 reagents; below is a random part of those that have a named target and a result. In the full data, 403 (1.9%) got an active call. 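Unnormalised raw counts per well; ratio z-scores behind the hit calls and whether each hit raises or lowers signal are not deposited.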 Names joined by + are all predicted targets of the reagent. Reagent sequences are not shown. Not stated in the record: the amount of reagent.

CG7131 [DRSC16203] | induced reporter light, run 1, well a = 2.10e5; induced reporter light, run 1, well b = 2.03e5; control promoter light, run 1, well a = 2.95e5; control promoter light, run 1, well b = 2.87e5; uninduced reporter light, run 1, well a = 15310; activity call = inactive
Apl [DRSC10350] | induced reporter light, run 1, well a = 2.22e5; induced reporter light, run 1, well b = 1.64e5; control promoter light, run 1, well a = 2.42e5; control promoter light, run 1, well b = 1.87e5; uninduced reporter light, run 1, well a = 7130; activity call = inactive
lva [DRSC18403] | induced reporter light, run 1, well a = 1.79e5; induced reporter light, run 1, well b = 1.95e5; control promoter light, run 1, well a = 2.38e5; control promoter light, run 1, well b = 2.36e5; uninduced reporter light, run 1, well a = 12105; activity call = inactive
dap [DRSC07601] | induced reporter light, run 1, well a = 1.85e5; induced reporter light, run 1, well b = 1.95e5; control promoter light, run 1, well a = 1.68e5; control promoter light, run 1, well b = 1.83e5; uninduced reporter light, run 1, well a = 12125; activity call = inactive
Mcr [DRSC03366] | induced reporter light, run 1, well a = 2.18e5; induced reporter light, run 1, well b = 2.16e5; control promoter light, run 1, well a = 2.34e5; control promoter light, run 1, well b = 2.51e5; uninduced reporter light, run 1, well a = 20725; activity call = inactive
CG18748 [DRSC15385] | induced reporter light, run 1, well a = 67390; induced reporter light, run 1, well b = 91355; control promoter light, run 1, well a = 94825; control promoter light, run 1, well b = 58080; uninduced reporter light, run 1, well a = 4265; activity call = inactive
CG17121 [DRSC15176] | induced reporter light, run 1, well a = 1.55e5; induced reporter light, run 1, well b = 1.64e5; control promoter light, run 1, well a = 2.05e5; control promoter light, run 1, well b = 1.89e5; uninduced reporter light, run 1, well a = 13135; activity call = inactive
CG42457 (retired record) + cpo [DRSC13273] | induced reporter light, run 1, well a = 41620; induced reporter light, run 1, well b = 36820; control promoter light, run 1, well a = 39910; control promoter light, run 1, well b = 37795; uninduced reporter light, run 1, well a = 8915; activity call = inactive
CG42457 (retired record) + cpo [DRSC14503] | induced reporter light, run 1, well a = 11295; induced reporter light, run 1, well b = 11978; control promoter light, run 1, well a = 11480; control promoter light, run 1, well b = 11825; uninduced reporter light, run 1, well a = 2415; activity call = inactive
CG42457 (retired record) + cpo [DRSC15327] | induced reporter light, run 1, well a = 12010; induced reporter light, run 1, well b = 10495; control promoter light, run 1, well a = 14460; control promoter light, run 1, well b = 13670; uninduced reporter light, run 1, well a = 3045; activity call = inactive
CG42457 (retired record) + cpo [DRSC16926] | induced reporter light, run 1, well a = 20560; induced reporter light, run 1, well b = 14770; control promoter light, run 1, well a = 14430; control promoter light, run 1, well b = 14795; uninduced reporter light, run 1, well a = 3250; activity call = inactive
CG4218 [DRSC01939] | induced reporter light, run 1, well a = 1.46e5; induced reporter light, run 1, well b = 1.51e5; control promoter light, run 1, well a = 1.36e5; control promoter light, run 1, well b = 1.20e5; uninduced reporter light, run 1, well a = 13670; activity call = inactive
CG16956 [DRSC02544] | induced reporter light, run 1, well a = 1.13e5; induced reporter light, run 1, well b = 1.26e5; control promoter light, run 1, well a = 1.58e5; control promoter light, run 1, well b = 1.44e5; uninduced reporter light, run 1, well a = 10405; activity call = inactive
CG18493 [DRSC15334] | induced reporter light, run 1, well a = 1.91e5; induced reporter light, run 1, well b = 1.75e5; control promoter light, run 1, well a = 2.20e5; control promoter light, run 1, well b = 2.33e5; uninduced reporter light, run 1, well a = 15015; activity call = inactive
CG10958 [DRSC17768] | induced reporter light, run 1, well a = 2.92e5; induced reporter light, run 1, well b = 2.88e5; control promoter light, run 1, well a = 3.96e5; control promoter light, run 1, well b = 3.86e5; uninduced reporter light, run 1, well a = 16970; activity call = inactive
Hsp60D [DRSC02543] | induced reporter light, run 1, well a = 1.21e5; induced reporter light, run 1, well b = 1.38e5; control promoter light, run 1, well a = 1.37e5; control promoter light, run 1, well b = 1.56e5; uninduced reporter light, run 1, well a = 10615; activity call = inactive
List [DRSC06520] | induced reporter light, run 1, well a = 45900; induced reporter light, run 1, well b = 37890; control promoter light, run 1, well a = 34015; control promoter light, run 1, well b = 46490; uninduced reporter light, run 1, well a = 4338; activity call = inactive
Fadd [DRSC14122] | induced reporter light, run 1, well a = 1.55e5; induced reporter light, run 1, well b = 1.61e5; control promoter light, run 1, well a = 2.26e5; control promoter light, run 1, well b = 2.10e5; uninduced reporter light, run 1, well a = 13065; activity call = inactive

A run of entries from the list above, as a working copy:
CG16956 [DRSC02544] | induced reporter light, run 1, well a = 1.13e5; induced reporter light, run 1, well b = 1.26e5; control promoter light, run 1, well a = 1.58e5; control promoter light, run 1, well b = 1.44e5; uninduced reporter light, run 1, well a = 10405; activity call = inactive
CG18493 [DRSC15334] | induced reporter light, run 1, well a = 1.91e5; induced reporter light, run 1, well b = 1.75e5; control promoter light, run 1, well a = 2.20e5; control promoter light, run 1, well b = 2.33e5; uninduced reporter light, run 1, well a = 15015; activity call = inactive
